These results are taken from article PMC7819943, “Rice protein-binding microarrays: a tool to detect cis-acting elements near promoter regions in rice”.

Some of the results follow.

The test addresses T1, OsSMF1 (Oryza sativa, UniProt Q6ZLB0 1-436).
T1 sequence: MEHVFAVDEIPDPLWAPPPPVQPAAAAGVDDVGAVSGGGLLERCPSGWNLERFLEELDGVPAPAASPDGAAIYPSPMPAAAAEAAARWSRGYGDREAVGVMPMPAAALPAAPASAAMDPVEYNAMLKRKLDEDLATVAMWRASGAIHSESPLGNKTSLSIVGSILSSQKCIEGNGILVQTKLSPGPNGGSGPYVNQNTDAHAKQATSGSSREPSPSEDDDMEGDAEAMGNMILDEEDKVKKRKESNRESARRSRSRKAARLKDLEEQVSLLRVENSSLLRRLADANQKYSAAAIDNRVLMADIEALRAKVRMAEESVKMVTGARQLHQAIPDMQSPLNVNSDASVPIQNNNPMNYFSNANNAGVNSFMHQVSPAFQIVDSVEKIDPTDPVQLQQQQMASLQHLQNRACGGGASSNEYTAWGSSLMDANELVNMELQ
As to the kind of experiment: protein-binding microarray (RPBM); PBS, 2% BSA, 51.3 ng/ul salmon testes DNA, 50 uM zinc acetate, 200 nM TF, 25 C, 1 h; high values mean tight binding. The following applies: protein: recombinant; tags: N-terminal polyhistidine and DsRed monomer fusion (pET32a); chain copies: 2; label: CyDye5-dUTP incorporated in the synthesized complementary strand; 3' TTTTT single-stranded linker to array surface; dsDNA, one strand shown. In a few lines:
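Binding signal is reported as fluorescence intensity per feature (arbitrary units) from an Axon 4000B scanner. Incubation used 200 nM of each Ni–NTA-purified, N-terminally polyhistidine- and DsRed-fused transcription factor from E. coli BL21-CodonPlus on a double-stranded custom Agilent array for 1 h at 25 °C, with 50 µM zinc acetate in the buffer, followed by washing.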
Take “GCGATTCAAAGGAGCCCAAAAGAGTTAAAAGGAGTGTCAGCGGAGTCACCTAGTGCAG”: the binding signal was 4170 fluorescence intensity (a.u.).
In the case of “TTAGTATTTAAAATTTAAAAGCAAAGTCATTCTCCTTCTACGGAGTCACCTAGTGCAG”, the binding signal was 8610 fluorescence intensity (a.u.).
To “CTCTACGTGTCAGACTCGTATCTGGGCCCACCTGACAGCGCGGAGTCACCTAGTGCAG” belongs 4090 fluorescence intensity (a.u.); to “TATACTCTATAATAATACAAATGTGATGCTAGTATATATTCGGAGTCACCTAGTGCAG”, 22000 fluorescence intensity (a.u.); to “GTCAAGCATTCGCCCGTGTTTGCTCGCTCCGCTCCGTCACCGGAGTCACCTAGTGCAG”, 4120 fluorescence intensity (a.u.).
In the case of “ATTCTGTCCCCGATCCCGTCACGTCTCCTGGAAACACCCCCGGAGTCACCTAGTGCAG”, the binding signal was 3430 fluorescence intensity (a.u.).
“ACTTTGGATCTAAACACAGCCTAACACGTGTACTACGAGACGGAGTCACCTAGTGCAG”: the binding signal was 4830 fluorescence intensity (a.u.).
The same measure for “TATATAAATATGTGCAGGTGACTAGGCTCAAATGTGGCGGCGGAGTCACCTAGTGCAG”: 6340 fluorescence intensity (a.u.).
To “TACTCTAAAATTTACCACATCAGCAAGAGCCATTATTTAACGGAGTCACCTAGTGCAG” belongs 4050 fluorescence intensity (a.u.).
On to “TATCATGTGTTCGTATGTCGTCATCTGGCATGTCTTAGGTCGGAGTCACCTAGTGCAG”, for which the binding signal is 4980 fluorescence intensity (a.u.).
As for “TGGACGGACGGAGGGACCCACCCATCCACGTCGCCGCTATCGGAGTCACCTAGTGCAG”, the binding signal was 5100 fluorescence intensity (a.u.).
The same measure for “TTGTCGGCCTCAAGTAAAAGGACGTGCAAGGGAGTCATTGCGGAGTCACCTAGTGCAG”: 3680 fluorescence intensity (a.u.); for “GTCCACACACGTTGACGAGGCAACGAGATACGGCACCAATCGGAGTCACCTAGTGCAG”: 4370 fluorescence intensity (a.u.).
The same measure for “GGTTGCTGAGCACTTGTGCTGCGCGGGCTACCTACCTGTTCGGAGTCACCTAGTGCAG”: 27200 fluorescence intensity (a.u.); for “CAGAGCGAGCGGTTGGGTAAAATCAGGCGCGCGTCACCGGCGGAGTCACCTAGTGCAG”: 5160 fluorescence intensity (a.u.); for “TTGTTCCAAGAAAGAAAAGGGAAATTTTCTTTAGCCCACCCGGAGTCACCTAGTGCAG”: 3180 fluorescence intensity (a.u.).
For the sequence “AGGTTCTGCGGCGTCAGGCTGGTCATGTACTTGCCGGGGACGGAGTCACCTAGTGCAG”, the binding signal was 3270 fluorescence intensity (a.u.).
For “ATAGAATGTTCTTAAGAACCTCAGAACAGTTATAAGAAACCGGAGTCACCTAGTGCAG”, the binding signal was 17600 fluorescence intensity (a.u.).
For “GCACACATACACATACTGACAATGATGAGTTGATGACACACGGAGTCACCTAGTGCAG”, the binding signal is 3520 fluorescence intensity (a.u.).
“CGGCCCATGAGTCCATTGATGACCTGTTCTTTCCTTCCTCCGGAGTCACCTAGTGCAG”: the binding signal is 5460 fluorescence intensity (a.u.).
For the sequence “CATAGATCATTGTATCACATTTTCGATTGCGTGTCAAACACGGAGTCACCTAGTGCAG”, the binding signal was 6840 fluorescence intensity (a.u.).
In the case of “TAGGATTAATAATCGATTTATTTTGCTGACATCTTGGGAGCGGAGTCACCTAGTGCAG”, the binding signal was 4260 fluorescence intensity (a.u.).
To “AAACACCGTCGCTGTCAGCCTGTGTGTCACGTTTGGCTATCGGAGTCACCTAGTGCAG” belongs 3900 fluorescence intensity (a.u.); to “GGTACCGAAAATGACGCGCCTCGCCAGCTGTATGCCACCGCGGAGTCACCTAGTGCAG”, 5110 fluorescence intensity (a.u.).
For the sequence “GGTCTTTAGGTTAAGGGTGGTTGTGCCTTATATTTTGGAACGGAGTCACCTAGTGCAG”, the binding signal is 3670 fluorescence intensity (a.u.).
For “GACGAATTTATTTATATAGTGTGTCACATGGGGTGTTCGGCGGAGTCACCTAGTGCAG”, the binding signal is 4480 fluorescence intensity (a.u.).
Take “TAGCATATTTGGCAATGTTTGCCTCACAGATGCCTCACAACGGAGTCACCTAGTGCAG”: the binding signal was 31200 fluorescence intensity (a.u.).
As to “CGAGTCGGAGGACTACTCGTCGTGCGCCGGCGAGTCAGACCGGAGTCACCTAGTGCAG”, the binding signal was 4080 fluorescence intensity (a.u.).
Regarding “GCACAAGTTGCAAATTACTACTACTAGTTCGCCAGTCACACGGAGTCACCTAGTGCAG”, the binding signal is 7790 fluorescence intensity (a.u.).
Take “TGGCAGCCGCTTCCTCCCGTCTATATATGCTAAGTCATCACGGAGTCACCTAGTGCAG”: the binding signal is 5080 fluorescence intensity (a.u.).
Regarding “GCTGCGCCACCGCCTTTTCCTCCTCGGCTACGTGTGCAACCGGAGTCACCTAGTGCAG”, the binding signal is 4250 fluorescence intensity (a.u.).
On to “AGTCAATTTAAACATGGCCGGCTGTAAAATCAATTTAGTCCGGAGTCACCTAGTGCAG”, for which the binding signal is 30400 fluorescence intensity (a.u.).
As to “GCCCAGCGTGCACGGCGCGACGGACTCGCGCGGCACTAGCCGGAGTCACCTAGTGCAG”, the binding signal is 5790 fluorescence intensity (a.u.).
The same measure for “TAATTCATTCTTAGGTTTTAGTGTACATTGCAAGCTGTAACGGAGTCACCTAGTGCAG”: 26700 fluorescence intensity (a.u.).
Consider “CTAACTGGAAGTAAAACGGCTGCTGACAGATTCTAACACACGGAGTCACCTAGTGCAG”, for which the binding signal is 3560 fluorescence intensity (a.u.).
Regarding “GCTCCATGCATGCCTCCACATCTCCATGACACAAGTCAGACGGAGTCACCTAGTGCAG”, the binding signal is 3200 fluorescence intensity (a.u.).
As for “GTACTCCTATGAGGCAGGCGAGGCGAGGAGGGAATACATACGGAGTCACCTAGTGCAG”, the binding signal is 38700 fluorescence intensity (a.u.).
Regarding “CGTTAATTCAGGATGTGTCATATTTTGTCCTACATTAATACGGAGTCACCTAGTGCAG”, the binding signal is 3270 fluorescence intensity (a.u.).
To “GAAGAACCCAAAGCCCAGCCCACCTCAGCATTCATCCCGCCGGAGTCACCTAGTGCAG” belongs 3800 fluorescence intensity (a.u.); to “GAGAGCAAATGTGCGCTATCGCTTTCCGAAGGCGTAAAGTCGGAGTCACCTAGTGCAG”, 11400 fluorescence intensity (a.u.); to “CAAGCCTAATGCGGACAGGATGAGTACATTATAATCTCTGCGGAGTCACCTAGTGCAG”, 3150 fluorescence intensity (a.u.).
For “ACCCTCCGACACATTCTTTTGAAGGTGTTCATGTAGATATCGGAGTCACCTAGTGCAG”, the binding signal was 3410 fluorescence intensity (a.u.).
